No constants are given. Whether binding was seen depends on the method and setting. Binding seen in cells or lysates may run through a third protein. Some entries that bind do so weakly or less than the wild type.

Protein sequences, listed by entry. Tags and fused reporters are not part of them.
UniProt Q9Y5X1: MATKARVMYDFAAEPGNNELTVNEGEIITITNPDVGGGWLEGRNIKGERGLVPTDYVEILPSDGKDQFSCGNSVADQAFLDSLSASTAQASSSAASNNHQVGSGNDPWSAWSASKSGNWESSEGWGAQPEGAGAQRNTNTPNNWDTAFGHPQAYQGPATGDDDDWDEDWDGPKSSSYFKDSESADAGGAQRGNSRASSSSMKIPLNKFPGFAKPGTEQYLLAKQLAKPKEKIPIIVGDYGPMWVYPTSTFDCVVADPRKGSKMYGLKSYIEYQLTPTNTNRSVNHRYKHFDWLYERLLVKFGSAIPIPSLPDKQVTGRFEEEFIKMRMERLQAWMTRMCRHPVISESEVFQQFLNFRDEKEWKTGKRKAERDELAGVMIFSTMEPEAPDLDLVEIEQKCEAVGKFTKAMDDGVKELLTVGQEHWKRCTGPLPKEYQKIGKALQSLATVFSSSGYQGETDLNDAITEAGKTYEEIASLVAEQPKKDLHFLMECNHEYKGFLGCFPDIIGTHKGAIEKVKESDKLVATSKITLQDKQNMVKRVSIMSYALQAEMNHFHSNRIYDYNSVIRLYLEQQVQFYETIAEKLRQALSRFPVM
UniProt P06493: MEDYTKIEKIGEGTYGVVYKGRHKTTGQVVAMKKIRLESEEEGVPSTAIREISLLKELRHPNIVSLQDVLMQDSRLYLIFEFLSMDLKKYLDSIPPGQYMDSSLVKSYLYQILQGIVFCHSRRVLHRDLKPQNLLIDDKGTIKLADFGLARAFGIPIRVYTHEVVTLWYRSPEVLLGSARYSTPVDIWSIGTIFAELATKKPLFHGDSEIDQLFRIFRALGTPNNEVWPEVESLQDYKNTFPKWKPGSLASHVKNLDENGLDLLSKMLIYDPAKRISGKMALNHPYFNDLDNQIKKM
UniProt O43684: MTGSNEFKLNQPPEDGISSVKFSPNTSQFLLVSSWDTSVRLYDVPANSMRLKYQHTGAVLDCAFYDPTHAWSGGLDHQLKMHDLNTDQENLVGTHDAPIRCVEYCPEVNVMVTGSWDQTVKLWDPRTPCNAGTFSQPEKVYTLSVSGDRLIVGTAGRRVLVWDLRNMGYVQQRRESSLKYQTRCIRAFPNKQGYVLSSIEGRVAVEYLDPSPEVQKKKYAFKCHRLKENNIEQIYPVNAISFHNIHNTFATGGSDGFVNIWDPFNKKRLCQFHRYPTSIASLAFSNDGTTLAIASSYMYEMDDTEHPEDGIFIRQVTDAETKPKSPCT
UniProt P14635: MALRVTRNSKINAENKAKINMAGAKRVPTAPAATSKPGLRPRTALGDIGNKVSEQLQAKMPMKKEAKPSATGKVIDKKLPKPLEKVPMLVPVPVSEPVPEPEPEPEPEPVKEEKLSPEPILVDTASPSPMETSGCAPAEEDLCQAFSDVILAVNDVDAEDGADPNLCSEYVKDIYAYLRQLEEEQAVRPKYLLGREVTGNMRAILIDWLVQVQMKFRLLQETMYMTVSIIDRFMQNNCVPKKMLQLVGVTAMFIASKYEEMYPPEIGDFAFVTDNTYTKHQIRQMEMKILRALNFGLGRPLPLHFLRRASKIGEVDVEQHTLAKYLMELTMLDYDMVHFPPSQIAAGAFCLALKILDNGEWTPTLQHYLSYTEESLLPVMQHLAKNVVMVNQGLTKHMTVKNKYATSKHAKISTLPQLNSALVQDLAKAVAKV
UniProt P31749: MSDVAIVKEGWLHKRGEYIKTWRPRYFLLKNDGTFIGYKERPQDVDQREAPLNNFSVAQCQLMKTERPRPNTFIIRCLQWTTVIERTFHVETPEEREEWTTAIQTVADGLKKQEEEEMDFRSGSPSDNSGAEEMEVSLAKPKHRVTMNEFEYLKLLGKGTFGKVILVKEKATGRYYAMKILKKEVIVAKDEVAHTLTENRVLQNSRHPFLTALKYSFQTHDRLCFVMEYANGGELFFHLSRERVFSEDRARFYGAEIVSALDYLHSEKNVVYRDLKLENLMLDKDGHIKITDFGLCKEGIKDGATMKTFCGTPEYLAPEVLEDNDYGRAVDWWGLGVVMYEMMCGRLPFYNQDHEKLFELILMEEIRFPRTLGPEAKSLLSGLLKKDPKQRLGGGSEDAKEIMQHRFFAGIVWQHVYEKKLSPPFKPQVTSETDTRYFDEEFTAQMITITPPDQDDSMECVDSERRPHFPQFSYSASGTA

Data on four substances can be found in article PMC5778034.

Assay [1] concerns the target SH3PX1 (human (endogenous in HEK293)) (UniProt Q9Y5X1). Nature of the assay: co-IP; reverse co-IP: antibodies against the partners on Dynabeads protein A, lysate 2 hours at 4 °C, washes with PBST; western blot with anti-Akt1 antibody.
In assay [2] the target is CDK1 (human (endogenous in HEK293)) (UniProt P06493). The assay is described as above.
The target of assay [3] is BUB3 (human (endogenous in HEK293)) (UniProt O43684). The assay is described as above.
Assay [4] deals with T1, API5 (human (endogenous in HEK293)) (UniProt Q9BZZ5).
T1 sequence: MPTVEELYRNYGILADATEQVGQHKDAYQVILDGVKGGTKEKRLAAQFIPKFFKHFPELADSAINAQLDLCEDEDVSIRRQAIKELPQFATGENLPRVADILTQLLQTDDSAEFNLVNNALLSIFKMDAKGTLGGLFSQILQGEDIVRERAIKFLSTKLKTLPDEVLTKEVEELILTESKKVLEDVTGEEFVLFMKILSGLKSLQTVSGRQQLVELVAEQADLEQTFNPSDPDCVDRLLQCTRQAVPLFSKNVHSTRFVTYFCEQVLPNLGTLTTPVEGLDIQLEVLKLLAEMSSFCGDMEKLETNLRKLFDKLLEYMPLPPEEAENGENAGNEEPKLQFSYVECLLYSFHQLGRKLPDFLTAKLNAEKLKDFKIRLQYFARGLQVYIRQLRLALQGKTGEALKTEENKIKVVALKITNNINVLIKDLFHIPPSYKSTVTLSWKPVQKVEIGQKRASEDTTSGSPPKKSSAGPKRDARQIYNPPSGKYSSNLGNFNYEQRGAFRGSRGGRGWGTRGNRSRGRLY
Described as above.

The target in assay [5] is CCNB1 (human (endogenous in HEK293)) (UniProt P14635). The assay is described as above.
Assay [6] has as its target Akt1 (PKBα) (human) (UniProt P31749). Nature of the assay: co-IP; asynchronous Akt1-expressing HEK293 cells lysed in IP buffer; affinity purification by the SH tag of Akt1; eluates probed by western blot with antibodies against the partners. (Immunoblotting shows a protein as a band on a membrane.)

With Akt1 (PKBα) (from UniProt P31749 1-480), the binding entry in assay [1], in assay [2], in assay [3], in assay [4] and in assay [5] was “binds” throughout.
In the case of BUB3 (from UniProt O43684 1-328), in assay [6], the binding entry is on record as “binds”.
On the same count and under the same terms, the value for CCNB1 (from UniProt P14635 1-433) was “binds”.
Turning to SH3PX1 (from UniProt Q9Y5X1 1-595), in assay [6], the binding entry was “binds”.
